From publication PMC11696715 come the findings set out here.

By UniProt entry, the sequences of proteins in these tests, tags left out.
UniProt P63330: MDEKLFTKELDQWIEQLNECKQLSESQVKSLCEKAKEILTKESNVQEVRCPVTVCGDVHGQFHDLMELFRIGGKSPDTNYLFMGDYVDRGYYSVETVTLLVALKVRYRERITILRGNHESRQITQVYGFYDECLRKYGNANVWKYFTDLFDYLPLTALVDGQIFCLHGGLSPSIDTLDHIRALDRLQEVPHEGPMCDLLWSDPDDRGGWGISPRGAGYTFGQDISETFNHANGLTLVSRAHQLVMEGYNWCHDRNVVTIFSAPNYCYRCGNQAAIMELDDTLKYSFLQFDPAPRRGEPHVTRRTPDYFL

These are yes or no findings as the source states them, for the method shown. Binding seen in cells or lysates may run through a third protein. Here binding means that the protein was enriched with, or labelled near, the bait; the list need not be complete. Where a sequence is shown, tags or fusion partners need not be part of it.

This experiment concerns the target T1, Flag-MYSM1 (UniProt Q69Z66).
T1 sequence: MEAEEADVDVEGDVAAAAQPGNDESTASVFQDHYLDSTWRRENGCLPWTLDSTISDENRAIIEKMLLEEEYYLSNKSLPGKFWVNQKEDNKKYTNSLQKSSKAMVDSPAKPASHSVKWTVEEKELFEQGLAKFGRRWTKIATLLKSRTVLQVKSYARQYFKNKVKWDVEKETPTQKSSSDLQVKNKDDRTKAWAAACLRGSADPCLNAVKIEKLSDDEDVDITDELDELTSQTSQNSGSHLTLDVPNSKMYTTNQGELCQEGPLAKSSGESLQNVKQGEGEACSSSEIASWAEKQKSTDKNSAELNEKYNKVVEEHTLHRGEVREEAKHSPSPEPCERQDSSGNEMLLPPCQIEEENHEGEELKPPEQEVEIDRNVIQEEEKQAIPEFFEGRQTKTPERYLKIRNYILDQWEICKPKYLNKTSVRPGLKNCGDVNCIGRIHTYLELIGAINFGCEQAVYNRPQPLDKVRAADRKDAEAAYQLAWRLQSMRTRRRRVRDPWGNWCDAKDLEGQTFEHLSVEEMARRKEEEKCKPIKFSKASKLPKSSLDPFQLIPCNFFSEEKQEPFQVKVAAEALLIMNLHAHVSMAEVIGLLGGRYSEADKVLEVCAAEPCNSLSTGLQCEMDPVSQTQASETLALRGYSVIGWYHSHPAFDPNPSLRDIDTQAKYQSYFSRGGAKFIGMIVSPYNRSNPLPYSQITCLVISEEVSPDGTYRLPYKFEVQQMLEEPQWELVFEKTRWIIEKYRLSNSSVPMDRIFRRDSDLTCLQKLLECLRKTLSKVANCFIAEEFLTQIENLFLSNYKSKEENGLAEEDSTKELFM
Kind of experiment: affinity purification with mass spectrometry; chondrocytes transfected with Flag-Mysm1 plasmids; immunoprecipitated with an anti-Flag antibody overnight; LC-MS/MS (Q Exactive HF-X).

Take “Ppp2ca (PP2Ac), catalytic subunit (C subunit) of protein phosphatase 2A (from UniProt P63330 1-309) (enzyme)”: the binding entry is listed as “binds”.
